For part of these data: Construct, isoform or probe ends are uncertain for at least one entry. For part of these data: At least one verdict rests on a figure or table, not on a statement of the authors.
Tests used:
Assay in all cases: EMSA
hsTFB1M (Homo sapiens) = hsTFB1M (Homo sapiens) (UniProt Q8WVM0); details: apparent Kd only in figure; EMSA: 50 mM Tris-HCl pH 8.0, 25 mM NaCl, 100 nM RNA, 37 C 30 min; 6% native PAGE, 0.5x TBE; recombinant protein; residues 28-346; protein details: His6-MBP N-terminal, removed by TEV; label: 5'-FAM
[1] = target: hsTFB1M R183E/R256E/R257E (Homo sapiens) (UniProt Q8WVM0); details: apparent Kd far greater than 2 uM; EMSA: 50 mM Tris-HCl pH 8.0, 25 mM NaCl, 100 nM RNA, 37 C 30 min; 6% native PAGE, 0.5x TBE; recombinant protein; residues 28-346; protein details: His6-MBP N-terminal, removed by TEV; label: 5'-FAM
[2] = target: hsTFB1M P143A/F144A/S145A (Homo sapiens) (UniProt Q8WVM0); details: not significantly impaired, only R183E/R256E/R257E was; EMSA: 50 mM Tris-HCl pH 8.0, 25 mM NaCl, 100 nM RNA, 37 C 30 min; 6% native PAGE, 0.5x TBE; recombinant protein; residues 28-346; protein details: His6-MBP N-terminal, removed by TEV; label: 5'-FAM

Amino acid sequences for entries named in this document (tags omitted). Residues count along the entry.
UniProt Q8WVM0, 28-346: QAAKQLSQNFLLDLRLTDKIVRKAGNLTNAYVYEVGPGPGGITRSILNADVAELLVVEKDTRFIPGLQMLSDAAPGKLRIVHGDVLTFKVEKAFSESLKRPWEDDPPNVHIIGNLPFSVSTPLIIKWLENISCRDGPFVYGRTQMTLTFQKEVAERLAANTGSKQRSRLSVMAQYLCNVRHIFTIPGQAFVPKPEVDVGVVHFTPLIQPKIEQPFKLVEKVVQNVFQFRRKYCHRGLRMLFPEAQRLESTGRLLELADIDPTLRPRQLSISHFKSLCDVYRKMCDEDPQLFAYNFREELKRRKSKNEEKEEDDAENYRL
UniProt Q8WVM0, 28-346 R183E/R256E/R257E: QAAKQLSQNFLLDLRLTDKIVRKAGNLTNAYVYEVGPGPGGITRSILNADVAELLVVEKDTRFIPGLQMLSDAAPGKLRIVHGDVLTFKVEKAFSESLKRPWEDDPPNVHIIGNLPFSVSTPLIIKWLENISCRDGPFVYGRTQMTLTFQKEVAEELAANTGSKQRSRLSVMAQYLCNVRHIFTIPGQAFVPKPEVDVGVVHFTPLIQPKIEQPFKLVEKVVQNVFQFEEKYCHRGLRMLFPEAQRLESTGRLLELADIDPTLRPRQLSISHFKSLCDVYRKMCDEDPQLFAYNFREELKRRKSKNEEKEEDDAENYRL
UniProt Q8WVM0, 28-346 P143A/F144A/S145A: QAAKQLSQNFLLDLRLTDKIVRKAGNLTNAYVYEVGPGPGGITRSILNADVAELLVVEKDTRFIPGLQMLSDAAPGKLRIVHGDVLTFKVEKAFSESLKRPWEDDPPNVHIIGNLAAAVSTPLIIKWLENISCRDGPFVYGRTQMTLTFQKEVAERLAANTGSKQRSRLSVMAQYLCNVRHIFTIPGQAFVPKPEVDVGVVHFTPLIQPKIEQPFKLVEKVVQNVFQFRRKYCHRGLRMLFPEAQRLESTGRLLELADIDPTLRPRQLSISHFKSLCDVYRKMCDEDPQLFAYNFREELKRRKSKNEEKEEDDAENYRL

GGUAAGUGUACUGGAAAGUGCACUUGCC [5'-FAM h45 RNA (WT)]
binding result (hsTFB1M (Homo sapiens)): binds
Kd [1]: > 2 µM
binding result [2]: binds

From paper PMC6698656
